Measurements taken from PubChem BioAssay AID1508615 (Milbrandt Lab, Department of Genetics, Washington …, 2020).
Screen size: about 1,600 compounds; about 20 (1%) were called active.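 Rule for the calls: active = ratio of uncleaved NAD to its breakdown product ADP-ribose above 4, meaning the enzyme was inhibited; inactive = the rest.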 Some of the results follow.

Chains of the proteins cited; added tags and fusions are not shown. Lines headed by an entry give the natural chain unless they say otherwise; changes in a name come on top.
UniProt Q6SZW1: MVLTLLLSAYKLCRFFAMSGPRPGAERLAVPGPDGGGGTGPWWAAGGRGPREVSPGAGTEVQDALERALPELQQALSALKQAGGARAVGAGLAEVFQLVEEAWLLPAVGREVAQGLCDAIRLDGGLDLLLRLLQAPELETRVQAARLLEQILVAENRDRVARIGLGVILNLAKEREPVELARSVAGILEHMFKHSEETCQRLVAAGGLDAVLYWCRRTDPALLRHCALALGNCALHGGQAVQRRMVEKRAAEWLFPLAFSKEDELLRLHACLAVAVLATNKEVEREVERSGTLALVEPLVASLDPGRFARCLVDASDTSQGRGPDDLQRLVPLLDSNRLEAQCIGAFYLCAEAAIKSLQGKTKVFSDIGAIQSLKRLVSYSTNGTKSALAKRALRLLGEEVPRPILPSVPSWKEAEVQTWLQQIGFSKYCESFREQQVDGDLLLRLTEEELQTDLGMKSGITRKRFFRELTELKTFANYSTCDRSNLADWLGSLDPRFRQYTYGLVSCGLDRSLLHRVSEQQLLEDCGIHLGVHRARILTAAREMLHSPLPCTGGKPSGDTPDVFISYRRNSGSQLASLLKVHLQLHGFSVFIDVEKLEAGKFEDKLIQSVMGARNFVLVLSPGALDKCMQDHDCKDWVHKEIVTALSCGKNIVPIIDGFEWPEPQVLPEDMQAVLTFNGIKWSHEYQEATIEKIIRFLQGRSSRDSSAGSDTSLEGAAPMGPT

Each compound was assayed against NAD(+) hydrolase SARM1 (Homo sapiens) (UniProt Q6SZW1) (assay: inhibition of SAM-TIR NAD hydrolysis to ADPR – cell lysate, HPLC readout, primary screen (AID 1508615;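 note: substrate NAD at 5 µM with 60 min at 37 °C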)). Details: HEK293T SAM-TIR lysate, NAD/ADPR ratio by HPLC; at 5 µM; stronger effect = higher value.

Row | Compound | NAD/ADPR ratio
1 | O=C(c1ccccc1)C1C(c2ccccc2)C1[N+](=O)[O-] (stereo not given) | active: 5.3
2 | NC(=O)c1cc(C(N)=O)nc(Cl)n1 | inactive: 3
3 | NS(=O)(=O)c1cc2c(cc1Cl)NC(Cc1ccccc1)NS2(=O)=O (stereo not given) | inactive: 3
4 | Cc1ccc(N2CCN(CC(O)COc3cccc(C)c3)CC2)cc1 (stereo not given) | inactive: 3
5 | CNC1(C(N)=O)CCNCC1 | inactive: 3
6 | O=C1CSC(c2cccs2)N1c1nncs1 (stereo not given) | inactive: 3
7 | COc1cc(C2c3cc4c(cc3C(OC3OC5COC(c6cccs6)OC5C(O)C3O)C3COC(=O)C23)OCO4)cc(OC)c1O (stereo not given) | inactive: 3
8 | O=[N+]([O-])c1cc2cccnc2c2ncccc12 | inactive: 3
9 | CCCn1cnc2c(Sc3c([N+](=O)[O-])ncn3C)nc(N)nc21 | inactive: 3
10 | CN(/N=N/c1nc[nH]c1C(=O)NN)C1CCCCC1 | inactive: 3
11 | CC(=O)Oc1ccc(OC(C)=O)c2c1CC(C)=C(C)C2 | inactive: 3
12 | CCOC(=O)c1cc(-c2ccccc2)nc2ccc(C)cc12 | inactive: 3
13 | CCOc1nsc(OCC)n1 | inactive: 3
14 | COc1cccc(OCC(O)CN2CCN(c3ccc(Cl)cc3)CC2)c1 (stereo not given) | inactive: 3
15 | S=C(SCc1cc(Cl)cc2c1OCOC2)N1CCSCC1 | inactive: 2.4
16 | C=CCN1CCN(c2ccncc2S(=O)(=O)N2CCN(C)CC2)CC1 | inactive: 3
17 | CCOC(=O)C(C)c1c(C(=O)c2ccc(C)nc2)c2ccccc2n1C (stereo not given) | inactive: 3
18 | CN(C)c1ccc(/C=N/NC(=O)c2cnc3ccccc3c2)cc1 | inactive: 3
19 | O=c1cc(-c2ccccc2)oc2ccc(O)cc12 | inactive: 3
20 | O=C1CCCc2cc3c(cc21)CC1(C3)Cc2cc3c(cc2C1)C(=O)CCC3 | inactive: 3

Row | Compound | NAD/ADPR ratio
21 | S=c1[nH]c2ccc(Cl)cc2s1 | inactive: 3
22 | O=c1[nH]c2nc(Cl)nc(Cl)c2[nH]1 | inactive: 3
23 | C(=C\CSc1ccccn1)/CSc1ccccn1 | inactive: 3
24 | O=C(Nc1ccc(Cl)c([N+](=O)[O-])c1)Nc1nc2ccccc2s1 | inactive: 3
25 | Cc1cc(NC(=O)OC(C)C)ccc1-c1ccc(NC(=O)OC(C)C)cc1C | inactive: 3
26 | CN(C(=O)c1ccncc1)c1ccccc1 | inactive: 3
27 | CC(C)c1ccc(-c2nc3ccccc3s2)cc1 | inactive: 3
28 | O=C(O)CSc1nc2ccccc2s1 | inactive: 3
29 | CN(C)c1nc(Cl)nc2c1nc(Cl)n2C1CCCCO1 (stereo not given) | inactive: 3
30 | Nn1c(Cc2ccccc2)nnc1Cc1ccccc1 | inactive: 3
31 | CCOC(=O)c1cc(OCC)c2c(ccc3ccccc32)n1 | inactive: 3
32 | O=Nc1c(-c2cccc([N+](=O)[O-])c2)nc2ncccn12 | inactive: 3
33 | Cc1ccc([N+](=O)[O-])cc1NC(=O)Nc1cccc(F)c1 | inactive: 3
34 | NC(CSC1(c2cccc3ccccc23)c2ccccc2-c2ccccc21)C(=O)O (stereo not given) | inactive: 3
35 | CS/C(=N\S(=O)(=O)c1ccccc1)NNC(=O)c1c(-c2c(Cl)cccc2Cl)noc1C | inactive: 3
36 | S=c1[nH]cc2cnccn12 | inactive: 3
37 | [NH-]c1ncnc2c1N=C[N+]2=CC=CCO | inactive: 3
38 | CSc1nc2cc(S(=O)(=O)N3CCCCC3)ccc2s1 | inactive: 3
39 | ClCC(CNCc1ccccc1)c1ccccc1 (stereo not given) | inactive: 3
40 | O=C(O)c1ccccc1-n1c2ccccc2c2ccccc21 | inactive: 3

Some of the entries above, reformatted:
Row,Compound,NAD/ADPR ratio
23,C(=C\CSc1ccccn1)/CSc1ccccn1,inactive: 3
24,O=C(Nc1ccc(Cl)c([N+](=O)[O-])c1)Nc1nc2ccccc2s1,inactive: 3
25,Cc1cc(NC(=O)OC(C)C)ccc1-c1ccc(NC(=O)OC(C)C)cc1C,inactive: 3
26,CN(C(=O)c1ccncc1)c1ccccc1,inactive: 3
27,CC(C)c1ccc(-c2nc3ccccc3s2)cc1,inactive: 3
28,O=C(O)CSc1nc2ccccc2s1,inactive: 3
29,CN(C)c1nc(Cl)nc2c1nc(Cl)n2C1CCCCO1 (stereo not given),inactive: 3
30,Nn1c(Cc2ccccc2)nnc1Cc1ccccc1,inactive: 3
31,CCOC(=O)c1cc(OCC)c2c(ccc3ccccc32)n1,inactive: 3
32,O=Nc1c(-c2cccc([N+](=O)[O-])c2)nc2ncccn12,inactive: 3
33,Cc1ccc([N+](=O)[O-])cc1NC(=O)Nc1cccc(F)c1,inactive: 3
34,NC(CSC1(c2cccc3ccccc23)c2ccccc2-c2ccccc21)C(=O)O (stereo not given),inactive: 3
35,CS/C(=N\S(=O)(=O)c1ccccc1)NNC(=O)c1c(-c2c(Cl)cccc2Cl)noc1C,inactive: 3
36,S=c1[nH]cc2cnccn12,inactive: 3
37,[NH-]c1ncnc2c1N=C[N+]2=CC=CCO,inactive: 3
38,CSc1nc2cc(S(=O)(=O)N3CCCCC3)ccc2s1,inactive: 3
39,ClCC(CNCc1ccccc1)c1ccccc1 (stereo not given),inactive: 3

Pulled by structure from above (two):
Row | Compound | NAD/ADPR ratio
39 | ClCC(CNCc1ccccc1)c1ccccc1 (stereo not given) | inactive: 3
25 | Cc1cc(NC(=O)OC(C)C)ccc1-c1ccc(NC(=O)OC(C)C)cc1C | inactive: 3

Next part

Row | Compound | NAD/ADPR ratio
41 | COc1c(C=O)c2c(c(OC)c1OC)-c1ccc(OC)c(=O)cc1C(NC(C)=O)CC2 (stereo not given) | inactive: 3
42 | CN(C)Cc1cc(C(F)(F)F)ccc1C(O)(c1ccccc1)c1ccccc1 | inactive: 3
43 | O=c1ccnc(Nc2ccc(Cl)cc2)[nH]1 | inactive: 3
44 | CCNc1nc(NC(C)C)nc(-c2ccncc2)n1 | inactive: 3
45 | N/C(CC(=O)Nc1cc(C(F)(F)F)ccc1Cl)=N\O | inactive: 3
46 | CCOC(=O)c1nn(-c2ccccc2)cc1O | inactive: 3
47 | Cc1c(NC(=O)Nc2c(Cl)cccc2Cl)c(=O)n(-c2ccccc2)n1C | inactive: 3
48 | Nc1nc(Cl)cc(Nc2ccccc2Cl)n1 | inactive: 3
49 | CC1=NC(C)(C)CC2CCC(O)C12 (stereo not given) | inactive: 3
50 | O=c1nc(Oc2ccccc2)nc2ncccn12 | inactive: 3
51 | CCC(C)n1c(C)cc(=O)n1C(C)CC (stereo not given) | inactive: 3
52 | c1ccn(CCc2ccncc2)c1 | inactive: 3
53 | CCSc1nc(C)c(C)c(=O)[nH]1 | inactive: 3
54 | CN(C)c1ccc(/C=C/C(=O)c2cc(Cl)ccc2O)cc1 | inactive: 3
55 | NC1(N2SC(S)=C3CCCC=C32)CCCCC1 | inactive: 3
56 | Cc1cccn2c(=S)[nH]nc12 | inactive: 3
57 | COc1ccc(CC(=O)c2ccc(O)cc2O)cc1 | inactive: 3
58 | O=C(O)c1ccc2c(c1Sc1ccccc1)C(=O)c1ccccc1C2=O | inactive: 3
59 | CCOC(=O)c1nc2sc3c(c2c(=O)[nH]1)CCCC3 | inactive: 3
60 | CCOC(=O)CCCN(c1[nH]c(C)c(C)c1C#N)S(=O)(=O)c1ccc(C)cc1 | inactive: 3
